Measurements reported in PubChem BioAssay AID652272 (Drosophila RNAi Screening Center, 2013)

Aim: 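Finding fly genes that regulate Hedgehog signal transduction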 (primary screen)
Cells: Drosophila clone 8 (Cl8) cells
Reagent: long dsRNA against Drosophila genes
Measurement: 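Firefly light from a Hedgehog-responsive ptc promoter reporter and Renilla reference light, both read on a plate reader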
Reading the numbers: firefly Hh reporter signal: higher = more ptc reporter light; Renilla reference signal: higher = more Renilla control light
Call rule: 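Called a hit if the two-replicate mean z-score lies below -2 or above +3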
Calls: active = hit: reporter lowered or raised; inactive = not a hit
In all, the deposit lists about 21,000 reagents; below is a random part of those that have a named target and a result. Over the whole deposit, 503 (2.4%) are marked active. 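Raw plate light values, not normalised; calls rest on replicate z-scores that were not deposited; hits include reporter decreases as well as increases.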 Unmarked entries are inactive. The numbers tell different reagents against one gene apart. A plus sign joins genes that one reagent is predicted to hit. Reagent sequences are not shown. The record does not give: the amount of reagent, the time to read-out.

gene	dsRNA no.	firefly Hh reporter signal, replicate 1	firefly Hh reporter signal, replicate 2	Renilla reference signal, replicate 1	Renilla reference signal, replicate 2
CG34268	1	1.09e5	2.05e5	3664	9431
Fem-1	1	79258	48775	2444	3490
CG13994	1	1.17e5	68135	3223	6681
ph-d (polyhomeotic distal)	1	42347 (active)	57553	3178	2996
TwdlS (TweedleS)	1	74722	1.01e5	2290	2785
CG30151	1	1.02e5	3.03e5	2693	11409
Obp50c + Obp50b	1	96850	2.07e5	2727	9184
TER94 (Transitional endoplasmic reticulum 94)	1	31244	30179	2106	2006
w-cup (world cup)	1	1.36e5	56646	3425	3480
ast (asteroid)	1	1.31e5	46006	4338	2201
AspRS-m (Aspartyl-tRNA synthetase, mitochondrial)	1	76266	49941	2278	5269
Phae2 (Phaedra 2)	1	1.56e5	88613	3857	6932
Klp59D (Kinesin-like protein at 59D)	1	1.23e5	74855	3175	5600
Ranbp16 + Lcch3	1	1.04e5	97136	2019	2044
lncRNA:CR40053 (long non-coding RNA:CR40053)	1	7.04e5	2.48e5	45024	5594
Rpn11 (Regulatory particle non-ATPase 11)	1	34736 (active)	19238	1644	3291
Nap1 (Nucleosome assembly protein 1)	1	89513	1.25e5	4327	4699
CG11327	1	82380	62730	2266	5623
kmr (kramer)	1	54659	3.20e5	11221	6845
kmr (kramer)	2	1.14e5	82692	4569	2711
kmr (kramer)	3	1.12e5	84392	4007	1904
kmr (kramer)	4	1.47e5	89360	5376	3354
CG13250	1	1.06e5	1.15e5	4011	3372
kkv (krotzkopf verkehrt)	1	98151	96088	3984	3746
CG17030	1	50781	69403	5338	4631
CG42570	1	1.89e5		3524	

Quoted from the listing, 2 entries:
gene	dsRNA no.	firefly Hh reporter signal, replicate 1	firefly Hh reporter signal, replicate 2	Renilla reference signal, replicate 1	Renilla reference signal, replicate 2
CG17030	1	50781	69403	5338	4631
CG42570	1	1.89e5		3524	

The listing continues.
gene	dsRNA no.	firefly Hh reporter signal, replicate 1	firefly Hh reporter signal, replicate 2	Renilla reference signal, replicate 1	Renilla reference signal, replicate 2
CG13227	1	1.38e5	94757	3122	6793
CG34282	1	6.06e5	1.46e5	29495	3427
CG1909	1	1.26e5	62512	2731	3041
CG12069	1	75532	1.08e5	2362	2793
Atg7 (Autophagy-related 7)	1	1.37e5	1.64e5	3746	7158
Atg7 (Autophagy-related 7)	2	1.04e5	54505	2880	3799
CG14989	1	97769	52694	4064	2404
Ptp4E (Protein tyrosine phosphatase 4E)	1	1.05e5	70966	2274	1920
CROT (Carnitine O-octanoyltransferase)	1	63291	56891	1482	1572
CROT (Carnitine O-octanoyltransferase)	2	87548	77515	3268	2987
Pp2A-29B (Protein phosphatase 2A at 29B)	1	1.68e5	90730	4108	7492
CG32767	1	57652 (active)	1.42e5	3376	9812
CG16789	1	77929	1.05e5	2819	3008
Pms2	1	1.03e5	84343	3652	3485
CG15745 (retired record)	1	89010	2.97e5	1972	9560
CG14302	1	8.20e5	1.55e5	39344	3941
Rpt6R (Regulatory particle triple-A ATPase 6-related)	1	89499	1.31e5	2785	3608
Ugt317A1 (UDP-glycosyltransferase family 317 member A1)	1	1.13e5	64196	3269	5830
hob (hobbit)	1	80416	46097	3053	1894
ebi	1	64397	1.05e5	4205	5828
CG13557	1	1.63e5	99179	4280	7811
Skp2 + CG14645	1	1.18e5	1.68e5	3544	23495
CG5863	1	68163	1.18e5	1319	2587
Tcs3 (Threonyl-carbamoyl synthesis 3)	1	1.03e5		4445	3170
aurB (aurora B)	1	34820	29051	2251	1844
CG3176 + CR18166 + CG32817	1	4.57e5	1.84e5	21795	3867
CG3176 + CR18166 + CG32817	2	4.35e5	1.73e5	22979	3753
CG3176 + CR18166 + CG32817	3	90960	74273	2178	2432
PolD1 (DNA polymerase delta subunit 1)	1	84834		1386	2429
CG11155	1	4.76e5	2.00e5	24711	4474
CG11155	2	1.13e5	84400	2433	2386
